Assay results published in patent US12258326B2, “Pyrazole derivative and harmful organism-controlling agent” (KUMIAI CHEMICAL INDUSTRY CO., LTD., priority 2018, dated 2025).
Some entries share one result that the patent states for a list of compounds.

What was measured:
Format in all cases: in vivo
Nilaparvata lugens = Nilaparvata lugens killing activity test; details: active ingredient 500 ppm; dipped paddy; second instar larvae; after 6 days; 25° C.
Protocol: The water-dispersible powder prepared in accordance with Formulation example 2 was diluted in water so that the concentration of the active ingredient was 500 ppm. Paddy was dipped in this liquid agent, and then put into a plastic cup. Ten second instar larvae of Nilaparvata lugens were released in the plastic cup, and the cup was lidded, and placed in a thermostatic chamber at 25° C. After 6 days, the number of live insects was counted, and the insect mortality was determined by the calculation formula of numerical formula 1. The test was conducted singly.

Plutella xylostella = Plutella xylostella killing test; details: active ingredient 500 ppm; dipped cabbage leaf; second instar larvae; after 6 days; 25° C.
Protocol: The water-dispersible powder prepared in accordance with Formulation example 2 was diluted in water so that the concentration of the active ingredient was 500 ppm. A cabbage leaf was dipped in this liquid agent, and air-dried, and then put into a plastic cup. Ten second instar larvae of Plutella xylostella were released in the cup, and the cup was lidded. Then, the cup was placed in a thermostatic chamber at 25° C., and the number of dead insects was examined after 6 days, and the insect mortality was determined by the calculation formula of numerical formula 1. The test was conducted singly.

Aphis gossypii = Aphis gossypii killing test; details: active ingredient 500 ppm; dipped cucumber nursery plant inoculated with nymphs; after 3 days; 25° C.
Protocol: The water-dispersible powder prepared in accordance with Formulation example 2 was diluted in water so that the concentration of the active ingredient was 500 ppm. A nursery plant of cucumber preliminarily inoculated with nymphs of Aphis gossypii was dipped in this liquid agent, and air-dried. The nursery plant of cucumber after the treatment was placed in a thermostatic chamber at 25° C., and the number of live insects was counted after 3 days, and the insect mortality was determined by the calculation formula of numerical formula 1. The test was conducted singly.

| Structure (SMILES) | insect mortality (Nilaparvata lugens) [%] | insect mortality (Plutella xylostella) [%] | insect mortality (Aphis gossypii) [%] |
| --- | --- | --- | --- |
| CCCOc1ccccc1-c1cn(-c2cccnc2)nc1C(N)=O [A-0125] | ≥ 50 | ≥ 50 | – |
| CCC(C)Oc1ccccc1-c1cn(-c2cccnc2)nc1C(N)=O (centres unmarked) [A-0134] | ≥ 50 | ≥ 50 | – |
| NC(=O)c1nn(-c2cccnc2)cc1-c1cccc([S+]([O-])C(F)(F)F)c1 (centres unmarked) [A-0192] | – | ≥ 50 | – |
| CC(=O)c1ccccc1-c1cn(-c2cccnc2)nc1C(N)=O [A-0227] | ≥ 50 | ≥ 50 | – |
| NC(=O)c1nn(-c2cccnc2)cc1-c1cccc(Cl)c1Cl [A-0600] | ≥ 50 | ≥ 50 | – |
| COc1ccc(C#N)cc1-c1cn(-c2cccnc2)nc1C(N)=O [A-1097] | ≥ 50 | ≥ 50 | – |
| NC(=O)c1nn(-c2cccnc2)cc1-c1cccc2c1OCCO2 [A-1136] | ≥ 50 | ≥ 50 | – |
| COc1ccc(F)c(-c2cn(-c3cccnc3)nc2C(N)=O)c1Cl [A-1155] | ≥ 50 | ≥ 50 | – |
| COc1ccc(Cl)c(-c2cn(-c3cccnc3)nc2C(N)=O)c1F [A-1156] | ≥ 50 | ≥ 50 | – |
| Cc1ccccc1-c1cn(-c2cccnc2)nc1C(=O)NC1CCCCC1 [A-1980] | ≥ 50 | ≥ 50 | – |
| Cc1ccccc1-c1cn(-c2cccnc2)nc1C(=O)NCC(F)(F)F [A-3192] | ≥ 50 | ≥ 50 | – |
| COC(=O)CNC(=O)c1nn(-c2cccnc2)cc1-c1ccccc1C [A-7030] | ≥ 50 | ≥ 50 | – |
| NC(=O)c1nn(-c2cccnc2)cc1-c1ccccn1 [B-0018] | ≥ 50 | ≥ 50 | – |
| Cc1cnccc1-c1cn(-c2cccnc2)nc1C(N)=O [B-0205] | ≥ 50 | ≥ 50 | – |
| Cc1cscc1-c1cn(-c2cccnc2)nc1C(N)=O [B-0301] | ≥ 50 | – | ≥ 50 |
| Cn1nccc1-c1cn(-c2cccnc2)nc1C(N)=O [B-0389] | ≥ 50 | – | ≥ 50 |

| Structure (SMILES) | insect mortality (Nilaparvata lugens) [%] | insect mortality (Plutella xylostella) [%] | insect mortality (Aphis gossypii) [%] |
| --- | --- | --- | --- |
| CCOC(=O)c1nn(-c2cccnc2)cc1-c1ccc(CC)cc1 [C-0025] | ≥ 50 | – | ≥ 50 |
| CCOC(=O)c1nn(-c2cccnc2)cc1-c1ccccc1OC [C-0119] | ≥ 50 | – | ≥ 50 |
| CCOC(=O)c1nn(-c2cccnc2)cc1-c1ccccc1OC(C)C [C-0128] | ≥ 50 | – | ≥ 50 |
| CCOC(=O)c1nn(-c2cccnc2)cc1-c1cccc(OC(F)(F)F)c1 [C-0144] | – | ≥ 50 | – |
| CCOC(=O)c1nn(-c2cccnc2)cc1-c1cccc(SC)c1 [C-0177] | ≥ 50 | – | ≥ 50 |
| CCOC(=O)c1nn(-c2cccnc2)cc1OS(=O)(=O)C(F)(F)F [D-0005] | ≥ 50 | – | ≥ 50 |
| CCOC(=O)c1nn(-c2cccnc2)cc1-c1ccncc1C [D-0213] | ≥ 50 | – | ≥ 50 |
| CCOC(=O)c1nn(-c2cccnc2)cc1-c1cscc1C [D-0309] | – | ≥ 50 | – |
| CCOC(=O)c1nn(-c2cccnc2)cc1-c1ccnc2ccccc12 [D-0463] | ≥ 50 | – | ≥ 50 |
| O=C(O)c1nn(-c2cccnc2)cc1-c1ccccc1F [E-0002] | – | ≥ 50 | – |
| O=C(O)c1nn(-c2cccnc2)cc1-c1cccc(F)c1 [E-0003] | – | ≥ 50 | – |
| Cc1ccccc1-c1cn(-c2cccnc2)nc1C(=O)O [E-0020] | – | ≥ 50 | – |
| CC(C)(C)c1ccccc1-c1cn(-c2cccnc2)nc1C(=O)O [E-0041] | – | ≥ 50 | – |
| CC(C)COc1ccccc1-c1cn(-c2cccnc2)nc1C(=O)O [E-0137] | – | ≥ 50 | – |
| CSc1ccccc1-c1cn(-c2cccnc2)nc1C(=O)O [E-0176] | – | ≥ 50 | – |
